Data from patent US20120121603A1 (THERACLONE SCIENCES, published 2012).
These are yes or no findings as the source states them, for the method shown. Some entries that bind do so weakly or less than the wild type.

By UniProt entry, the sequences of proteins in these tests, tags left out.
UniProt P06821: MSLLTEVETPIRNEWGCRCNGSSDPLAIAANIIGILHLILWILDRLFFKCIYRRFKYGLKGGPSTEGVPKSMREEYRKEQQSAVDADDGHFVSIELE

Legend:
[1] = molecular target: influenza A/Puerto Rico/8/34 (PR8) virus, M2 on virions (Influenza A virus A/Puerto Rico/8/34 (PR8)) (UniProt P06821); assay: ELISA, crude supernatant on PR8 virus coated plates
[2] = molecular target: influenza A/Puerto Rico/8/34 (PR8) virus, M2 on virions (Influenza A virus A/Puerto Rico/8/34 (PR8)) (UniProt P06821); assay: binding to influenza virions
[3] = molecular target: influenza A/Puerto Rico/8/34 (PR8) virus, M2 on virions (Influenza A virus A/Puerto Rico/8/34 (PR8)) (UniProt P06821); assay: ELISA, crude supernatant on influenza virus

Measured: binding

B1: 23K12 (antibody, V domains shown)
VH: EVQLVESGGGLVQPGGSLRISCAASGFTVSSNYMSWVRQAPGKGLEWVSVIYSGGSTYYADSVKGRFSFSRDNSKNTVFLQMNSLRAEDTAVYYCARCLSRMRGYGLDVWGQGTTVTVS
VL: DIQMTQSPSSLSASVGDRVTITCRTSQSISSYLNWYQQKPGKAPKLLIYAASSLQSGVPSRFSGSGSGTDFTLTISGLQPEDFATYYCQQSYSMPAFGQGTKLEIK
binds: all assays above
